# Source: article PMC12040169 (PLOS Biology, 2025)
# The list shows a part of the results.
# System: T1, CTL2-GFP (C. trachomatis L2/434/Bu, GFP-expressing)
# T1 construct: L2/434/Bu, GFP-expressing
# Parameters: species or system HeLa; Intracellular C. trachomatis growth in HeLa cells, bulk GFP fluorescence relative to DMSO
# Conditions: bulk GFP, single well; 28.5 h, 10 µM; inhibitor
row,Compound,% of control remaining
1,Cc1ccc(S(=O)(=O)Nc2cccc(C(=O)N3CCN(C)CC3)c2)cc1[N+](=O)[O-] [CBK038976],120.157%
2,O=C(CSc1n[nH]c(=O)n1Cc1ccccc1)NCc1ccc(-c2ccc(Cl)cc2)o1 [CBK296963],68.9195%
3,CCOC(=O)N1CCN(S(=O)(=O)c2ccc3c(c2)oc(=O)n3CC)CC1 [CBK305055],105.84%
4,O=C(CCc1ccccc1)Nc1cccc(N2C(=O)C3C4c5ccccc5C(c5ccccc54)C3C2=O)c1 (centres unmarked) [CBK265409],100%
5,N#CCCn1cc(C(=O)N2CCOCC2)c(-c2cccs2)n1 [CBK306195],94.1725%
6,O=C1/C(=C/NNc2nc3ccccc3s2)Sc2ccccc21 [CBK261627],74.4787%
7,CCC(CC)C(=O)N1CCCC1c1n[nH]cc1-c1ccncc1 (centres unmarked) [CBK283467],120.71%
8,CCOC(=O)CC1=C(C(=O)OCC)C(c2ccccc2C(F)(F)F)C(C#N)=C(N)O1 (centres unmarked) [CBK262710],77.015%
9,CC(NC(=O)c1cc2ccc(N(C)C)cc2[nH]1)c1ccccn1 (centres unmarked) [CBK281821],134.786%
10,Cc1cc(C)n(CC(=O)NC(CC(=O)O)c2ccccc2Cl)n1 (centres unmarked) [CBK305695],108.351%
11,CC(=O)N[C@H]1C[C@@H](Cc2cc(CCO)on2)C1(C)C [CBK289243],125.915%
12,CCOC(=O)C1=C(C)Nc2nc(C)nc(Cl)c2O1 [CBK021504],178.135%
13,Cn1cc(-c2nccnc2OCCOc2ccccc2)cn1 [CBK107080],100%
14,Cc1nc2ccc(C(=O)N(C)Cc3ccco3)cn2c1N(C)C=O [CBK145482],106.133%
15,COc1nccnc1-c1ccc(C)c(C)c1 [CBK106853],125.796%
16,CN(C)Cc1cc(C[C@@H]2C[C@H](NC(=O)c3ccnc(Cl)c3)C2(C)C)no1 [CBK289311],121.344%
17,O=S(=O)(Cc1cc(Cl)ccc1F)N1CCN(CCO)CC1 [CBK306385],116.938%
18,O=C(Nc1ccc(N2CCN(Cc3ccccc3)CC2)cc1)c1nc[nH]n1 [CBK266960],115.45%
19,C=CCn1c(SCC(=O)Nc2cccc(C(F)(F)F)c2)nnc1C12CC3CC(CC(C3)C1)C2 [CBK266054],118.598%
20,Nc1nonc1-n1cc(CN2CCCCC2)nn1 [CBK307044],146.874%
21,OCCCc1nc2ccccc2n1CCOc1ccccc1 [CBK297728],108.138%

# 3 entries drawn at random from the list so far, as already listed:
row,Compound,% of control remaining
19,C=CCn1c(SCC(=O)Nc2cccc(C(F)(F)F)c2)nnc1C12CC3CC(CC(C3)C1)C2 [CBK266054],118.598%
3,CCOC(=O)N1CCN(S(=O)(=O)c2ccc3c(c2)oc(=O)n3CC)CC1 [CBK305055],105.84%
8,CCOC(=O)CC1=C(C(=O)OCC)C(c2ccccc2C(F)(F)F)C(C#N)=C(N)O1 (centres unmarked) [CBK262710],77.015%

# (more compounds)

row,Compound,% of control remaining
1,Cc1cccc2cc3c(nc12)OCCN(C)C3 [CBK285192],114.627%
2,CC1CN(C(=O)CCn2c(C(F)F)cc3cccnc32)CC(C)O1 (centres unmarked) [CBK284984],145.629%
3,COc1ccc(C(=O)Nc2ccccc2C(=O)Nc2cccc([N+](=O)[O-])c2)cc1 [CBK265894],128.767%
4,O=C(O)c1cccc(-c2cncc(NCCCN3CCOCC3)n2)c1 [CBK037850],138.703%
5,CCCCC(=O)N(C)c1c(C)nc2ccc(C(=O)Nc3ccc(C(N)=O)cc3)cn12 [CBK147066],81.9954%
6,COC(=O)c1c(NS(=O)(=O)c2cccc(Cl)c2)csc1C [CBK026678],112.678%
7,Cc1ccc(OCC(=O)Nc2sc3c(c2C#N)CCCC3)cc1 [CBK263548],108.761%
8,O=C(C1c2ccccc2Oc2ccccc21)N1C2CCC1CC(O)(c1ccco1)C2 (centres unmarked) [CBK286169],114.325%
9,Cn1c(CNC(=O)c2ccc(Cl)cc2)nnc1SCC(=O)c1ccc(Br)cc1 [CBK266145],146.67%
10,CCS(=O)(=O)N1C2CCC(C2)[C@H]1COc1ccc(F)cc1 (some centres unmarked) [CBK285280],79.4432%
11,S=C1NCN(Cc2ccc3c(c2)OCO3)CN1 [CBK267899],129.183%
12,CC(C)C(=O)Nc1cc2cccnc2c(-c2ccsc2)n1 [CBK081259],106.302%
13,CCn1c2cc(C)sc2c2cnn(CC(=O)NC(C)(C)C)c(=O)c21 [CBK284152],86.9803%
14,CNC(=O)c1ccc(NC(=O)CC(C)(C)CC(=O)O)cc1 [CBK296615],140.079%
15,O=C(c1cc(-c2ccc(Cl)cc2)nc2ccccc12)n1nnc2ccccc21 [CBK264640],101.344%
16,O=[N+]([O-])c1cc(F)ccc1Oc1cccc(C(F)(F)F)c1 [CBK002802],87.1444%
17,CC(C)(C)OC(=O)NCCNC(=O)Nc1ccccc1C(F)(F)F [CBK056940],105.949%
18,Cc1ccc(C(=O)NCCNC(=O)CN2CCCC2)cc1 [CBK264103],106.009%
19,CCOC(=O)N1CCC(NC(=O)N(CCN(C)C)Cc2ccccc2)CC1 [CBK155121],115.915%
20,O=C(COc1ccc(C2CCCCC2)cc1)Nc1cccc(-c2nc3ncccc3o2)c1 [CBK264569],100%
